Reference: paper PMC4792926, “G9a-mediated methylation of ERα links the PHF20/MOF histone acetyltransferase complex to hormonal gene expression” (Nature Communications, 2016)
These are yes or no findings as the source states them, for the method shown. For some of these results: In cells and extracts the contact can be indirect. Some binding calls cover weakened binding; strength is not graded here. For some of these results: Where a sequence is shown, tags or fusion partners need not be part of it.

Amino acid sequences for entries named in this document (tags omitted). A change or cut given only in a name is not applied to a line headed by its entry.
UniProt P03372: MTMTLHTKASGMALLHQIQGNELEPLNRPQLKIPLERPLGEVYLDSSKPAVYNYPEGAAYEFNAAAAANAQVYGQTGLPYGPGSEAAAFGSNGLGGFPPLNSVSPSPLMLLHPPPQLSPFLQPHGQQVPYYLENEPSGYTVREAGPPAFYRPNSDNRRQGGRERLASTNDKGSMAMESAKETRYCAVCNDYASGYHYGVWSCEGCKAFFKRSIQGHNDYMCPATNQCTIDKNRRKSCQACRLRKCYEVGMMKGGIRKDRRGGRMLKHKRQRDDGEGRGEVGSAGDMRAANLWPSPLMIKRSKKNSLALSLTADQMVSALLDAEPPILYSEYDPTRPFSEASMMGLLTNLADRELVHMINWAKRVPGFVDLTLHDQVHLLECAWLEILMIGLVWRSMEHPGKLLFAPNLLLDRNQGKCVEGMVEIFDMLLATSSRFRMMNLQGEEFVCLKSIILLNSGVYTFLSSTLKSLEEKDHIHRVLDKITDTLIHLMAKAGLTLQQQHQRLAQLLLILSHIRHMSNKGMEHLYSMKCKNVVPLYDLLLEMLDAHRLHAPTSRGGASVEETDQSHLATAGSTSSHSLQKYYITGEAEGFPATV

What was measured:
[1] = target: T1, S. pombe SPF30 Tudor domain (on the CADOR array) (S. pombe) (UniProt O94519); assay: peptide or protein array; CADOR 5.0 chromatin-associated domain array (over 300 reader domains spotted) probed with biotinylated ERα peptides (aa 227-244, K235me2 or unmodified); both purified
T1 sequence: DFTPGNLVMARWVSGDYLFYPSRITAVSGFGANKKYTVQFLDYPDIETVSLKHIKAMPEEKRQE

[2] = target: T2, Flag-PHF20 (human) (UniProt Q9BVI0); assay: co-IP; HEK-293T cells co-transfected with Flag- and Myc-tagged proteins; anti-FLAG M2 agarose IP, western blot; lysis in 50 mM Tris-HCl pH 7.4, 250 mM NaCl, 0.5% Triton X-100, 10% glycerol, 1 mM DTT; also with G9a co-expression or BIX-01294 for 24 h
T2 sequence: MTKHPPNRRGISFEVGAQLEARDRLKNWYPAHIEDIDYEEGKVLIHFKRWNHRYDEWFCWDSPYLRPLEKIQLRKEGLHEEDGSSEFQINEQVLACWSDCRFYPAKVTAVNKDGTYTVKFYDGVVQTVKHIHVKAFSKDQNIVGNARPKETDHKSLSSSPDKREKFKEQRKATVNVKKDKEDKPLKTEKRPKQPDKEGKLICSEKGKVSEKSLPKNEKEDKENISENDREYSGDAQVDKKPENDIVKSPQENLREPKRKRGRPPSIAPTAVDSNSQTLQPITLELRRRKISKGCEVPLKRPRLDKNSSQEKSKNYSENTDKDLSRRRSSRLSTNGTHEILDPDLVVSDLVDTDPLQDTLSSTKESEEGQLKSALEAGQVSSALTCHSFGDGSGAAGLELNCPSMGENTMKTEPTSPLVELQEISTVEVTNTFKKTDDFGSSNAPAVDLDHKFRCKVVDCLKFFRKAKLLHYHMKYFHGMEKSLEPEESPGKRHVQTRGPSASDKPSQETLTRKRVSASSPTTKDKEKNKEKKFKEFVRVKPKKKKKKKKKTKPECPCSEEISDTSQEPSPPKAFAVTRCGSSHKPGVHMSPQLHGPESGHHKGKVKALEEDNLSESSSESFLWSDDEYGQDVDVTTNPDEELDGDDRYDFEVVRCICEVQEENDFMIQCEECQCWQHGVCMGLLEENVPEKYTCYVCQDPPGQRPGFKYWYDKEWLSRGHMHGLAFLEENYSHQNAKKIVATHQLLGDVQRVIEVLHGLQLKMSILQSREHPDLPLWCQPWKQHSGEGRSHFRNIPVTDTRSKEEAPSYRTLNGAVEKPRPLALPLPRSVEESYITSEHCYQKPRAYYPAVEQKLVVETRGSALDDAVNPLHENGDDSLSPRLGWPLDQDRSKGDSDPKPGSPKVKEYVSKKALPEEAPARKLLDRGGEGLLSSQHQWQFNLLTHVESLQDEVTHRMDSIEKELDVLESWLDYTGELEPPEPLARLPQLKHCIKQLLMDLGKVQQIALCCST

[3] = target: Flag-ERαK235R mutant (human) (UniProt P03372); assay: as above
[4] = target: Flag-ERα (human) (UniProt P03372); assay: as above

For “ERα peptide (aa 227–244) bearing dimethylated K235 (from UniProt P03372 227-244)”, the binding [1] was “binds”.

For “Myc-ERα (from UniProt P03372 1-595) (receptor)”, the binding [2] was “binds”.

B1: Myc-PHF20 (protein, UniProt Q9BVI0 1-1012)
chain: MTKHPPNRRGISFEVGAQLEARDRLKNWYPAHIEDIDYEEGKVLIHFKRWNHRYDEWFCWDSPYLRPLEKIQLRKEGLHEEDGSSEFQINEQVLACWSDCRFYPAKVTAVNKDGTYTVKFYDGVVQTVKHIHVKAFSKDQNIVGNARPKETDHKSLSSSPDKREKFKEQRKATVNVKKDKEDKPLKTEKRPKQPDKEGKLICSEKGKVSEKSLPKNEKEDKENISENDREYSGDAQVDKKPENDIVKSPQENLREPKRKRGRPPSIAPTAVDSNSQTLQPITLELRRRKISKGCEVPLKRPRLDKNSSQEKSKNYSENTDKDLSRRRSSRLSTNGTHEILDPDLVVSDLVDTDPLQDTLSSTKESEEGQLKSALEAGQVSSALTCHSFGDGSGAAGLELNCPSMGENTMKTEPTSPLVELQEISTVEVTNTFKKTDDFGSSNAPAVDLDHKFRCKVVDCLKFFRKAKLLHYHMKYFHGMEKSLEPEESPGKRHVQTRGPSASDKPSQETLTRKRVSASSPTTKDKEKNKEKKFKEFVRVKPKKKKKKKKKTKPECPCSEEISDTSQEPSPPKAFAVTRCGSSHKPGVHMSPQLHGPESGHHKGKVKALEEDNLSESSSESFLWSDDEYGQDVDVTTNPDEELDGDDRYDFEVVRCICEVQEENDFMIQCEECQCWQHGVCMGLLEENVPEKYTCYVCQDPPGQRPGFKYWYDKEWLSRGHMHGLAFLEENYSHQNAKKIVATHQLLGDVQRVIEVLHGLQLKMSILQSREHPDLPLWCQPWKQHSGEGRSHFRNIPVTDTRSKEEAPSYRTLNGAVEKPRPLALPLPRSVEESYITSEHCYQKPRAYYPAVEQKLVVETRGSALDDAVNPLHENGDDSLSPRLGWPLDQDRSKGDSDPKPGSPKVKEYVSKKALPEEAPARKLLDRGGEGLLSSQHQWQFNLLTHVESLQDEVTHRMDSIEKELDVLESWLDYTGELEPPEPLARLPQLKHCIKQLLMDLGKVQQIALCCST
For B1, the binding [3] was “binds” and the binding [4] was “binds”.
